{"sequences": {"note": "By UniProt entry, the sequences of proteins in these tests, tags left out.", "UniProt P18054, whole entry, looked up": "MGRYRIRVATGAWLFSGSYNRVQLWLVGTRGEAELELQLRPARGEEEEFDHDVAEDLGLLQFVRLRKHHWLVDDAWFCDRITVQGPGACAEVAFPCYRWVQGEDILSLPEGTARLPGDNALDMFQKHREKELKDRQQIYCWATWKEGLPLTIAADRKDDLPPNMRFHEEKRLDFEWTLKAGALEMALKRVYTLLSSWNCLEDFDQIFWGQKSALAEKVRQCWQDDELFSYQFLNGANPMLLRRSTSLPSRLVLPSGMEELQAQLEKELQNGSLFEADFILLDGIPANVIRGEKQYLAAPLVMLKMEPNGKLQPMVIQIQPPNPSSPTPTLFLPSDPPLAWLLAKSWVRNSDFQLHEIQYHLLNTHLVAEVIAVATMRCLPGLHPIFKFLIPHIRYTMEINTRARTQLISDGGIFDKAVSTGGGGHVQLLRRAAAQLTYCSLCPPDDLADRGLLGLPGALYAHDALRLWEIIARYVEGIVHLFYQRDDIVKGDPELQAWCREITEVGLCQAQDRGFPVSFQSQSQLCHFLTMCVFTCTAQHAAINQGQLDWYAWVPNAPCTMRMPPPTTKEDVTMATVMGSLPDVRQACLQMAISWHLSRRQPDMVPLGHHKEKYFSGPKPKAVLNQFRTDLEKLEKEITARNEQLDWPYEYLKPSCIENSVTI"}, "source": "PubChem BioAssay AID1671190", "about": "(National Center for Advancing Translational Sciences (NCATS), 2021)", "note": "About 6,100 (1.1%) of roughly 580,000 compounds were called active. Inconclusive results, whose numbers are uncertain, are shown with a selection of clear calls. Calls follow the shape of the dose curve; as a rule, active = well fitted inhibition curve with a large enough effect; inconclusive = small, poorly fitted or top-dose-only effect, or another doubt; inactive = no such curve, though single readings can be large or run the other way. Potencies of inconclusive entries are doubtful fits and often do not repeat. % is scaled to controls: 0 for no effect and ±100 for the full control effect; potency is read from the fitted curve at half-maximal effect."}
{"target": "Polyunsaturated fatty acid lipoxygenase ALOX12 (Homo sapiens) (UniProt P18054)", "test": "Primary qHTS assay for inhibitors of human arachidonate 12S-lipoxygenase (ALOX12): Round 2", "settings": "purified 12hLO, xylenol orange hydroperoxide absorbance; activity change, negative = inhibition: at 108 µM (top of the series) unless noted", "procedure,_shortened": "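Hydroperoxide product was detected by ferrous iron/xylenol orange as the 573 to 405 nm absorbance ratio. Arachidonic acid at 40 uM (final) was turned over for 30 min at room temperature by 150 nM human 12hLO, pH 7.0 Hepes buffer, after 15 min compound preincubation.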"}
{"smiles": "c1cc(CN2CCc3c(sc4ncnc(N5CCOCC5)c34)C2)ccn1", "activity change, negative = inhibition": "inactive: 80.3%"}
{"smiles": "Cc1ccc(S(=O)(=O)Nc2nc3n(n2)C(c2ccc(Cl)cc2)C=C(c2ccccc2)N3)cc1", "note": "(centres undefined)", "Potency": "inconclusive: 31.6 µM [inhibitor, full curve, poor fit]"}
{"smiles": "O=C(O)c1[nH]c2ccc([N+](=O)[O-])cc2c1-c1ccccc1", "Potency": "inconclusive: 0.891 µM [inhibitor, partial curve, poor fit]"}
{"smiles": "O=C(NCc1ccc2c(c1)OCO2)c1ccc(-c2ccc(Cl)cc2)o1", "Potency": "inconclusive: 10 µM [inhibitor, full curve]"}
{"smiles": "CCSC1=C(C#N)C(c2ccccc2OC)CC(=O)N1", "note": "(centres undefined)", "Potency": "inconclusive: 5.62 µM [inhibitor, partial curve, poor fit]"}
{"smiles": "COc1ccccc1CNc1ccnc(-c2ccoc2)n1", "Potency": "inconclusive: 17.8 µM [inhibitor, partial curve, poor fit]"}
{"smiles": "CC1CCC(=NO)CC1", "note": "(centres undefined)", "activity change, negative = inhibition": "inactive: -23.1%"}
{"smiles": "Cc1ccc(NC(=O)[C@H](Cc2ccccc2)N2Cc3ccccc3C2=O)cc1F", "activity change, negative = inhibition": "inconclusive: -43% [inhibitor]"}
{"smiles": "COc1ccc(-c2nnc(SCC(=O)NNC(=O)Cc3ccccc3)n2C)cc1OC", "activity change, negative = inhibition": "inactive: 17.2%"}
{"smiles": "COC(=O)/C(C#N)=C/c1ccc(C)o1", "activity change, negative = inhibition": "inactive: 0.418%"}
{"smiles": "CC1=C(C(=O)OC2CCCCCC2)C(c2c(Cl)cccc2Cl)CC(=O)N1", "note": "(centres undefined)", "activity change, negative = inhibition": "inactive: -31.6%"}
{"smiles": "COCCCn1c(=O)/c(=C\\c2ccccc2OC(F)F)s/c1=C(/C#N)C(=O)NCCOC", "activity change, negative = inhibition": "inactive: 0.661%"}
{"smiles": "Cc1ccc(C)c(NC(=O)CCC2CCCC2)c1", "activity change, negative = inhibition": "inactive: -25.6%"}
{"smiles": "Cc1nc2c(ccc3nc(NC(=O)c4ccc5c(c4)OCCO5)sc32)s1", "activity change, negative = inhibition": "inactive: 5.38%"}
{"smiles": "CC(C(=O)NC(=O)NC1CCCCC1)N1CCN(c2ccccn2)CC1", "note": "(centres undefined)", "Potency": "inconclusive: 39.8 µM [inhibitor, single point]"}
{"smiles": "O=C1CC(C(=O)Nc2ccc3c(c2)OCCO3)n2c(nc3ccccc32)N1", "note": "(centres undefined)", "Potency": "inconclusive: 44.7 µM [inhibitor, partial curve, poor fit]"}
{"smiles": "CCc1cc(C(=O)NCC(c2cccs2)N2CCOCC2)sc1C", "note": "(centres undefined)", "activity change, negative = inhibition": "inactive: -2.01%"}
{"smiles": "Cc1cc(C(F)(F)F)nc(SC(C(=O)O)c2ccccc2)n1", "note": "(centres undefined)", "Potency": "active: 11.2 µM"}
{"smiles": "CCCc1c2c(cc3c(=O)cc(C(=O)OCC)oc13)CCCC2", "activity change, negative = inhibition": "inactive: 9.07%"}
{"smiles": "O=C(C1CCN(S(=O)(=O)c2cccc3cccnc23)CC1)N1CCN(c2ccccn2)CC1", "activity change, negative = inhibition": "inactive: 0%"}
{"smiles": "C=CCN(c1ccccc1OC)S(=O)(=O)c1cccc(C(=O)OCC(=O)c2c(N)n(C)c(=O)n(C)c2=O)c1", "activity change, negative = inhibition": "inactive: 159%"}
{"smiles": "CCN1CCC(c2nc3ccc(F)cc3c(=O)[nH]2)CC1", "Potency": "inconclusive: 56.2 µM [inhibitor, partial curve]"}
{"smiles": "CN(C)C(=O)c1ccc2oc(CN3CCN(C(=O)Nc4ccccc4Cl)CC3)nc2c1", "activity change, negative = inhibition": "inactive: 21.7%"}
{"smiles": "CN(c1ccccc1)c1nc(N)c(C#N)c(CC#N)c1C#N", "Potency": "inconclusive: 158 µM [inhibitor, partial curve, poor fit]"}
{"smiles": "CCOc1ccc(NS(=O)(=O)c2ccc(C(=O)NCC3(N4CCCCC4)CCCCC3)cc2)cc1", "Potency": "inconclusive: 3.55 µM [inhibitor, full curve, poor fit]"}
{"smiles": "Cc1cccc(NC(=O)c2ccc(F)c(S(=O)(=O)N3CCN(c4ccc(F)cc4)CC3)c2)c1", "Potency": "inconclusive: 44.7 µM [inhibitor, partial curve, poor fit]"}
{"smiles": "O=C(NCc1coc(-c2cccs2)n1)c1cc(F)cc(F)c1", "activity change, negative = inhibition": "inactive: 4.88%"}
{"smiles": "Cc1ccc(S(=O)(=O)NCC2CCC(C(=O)NCC(=O)NCc3ccco3)CC2)cc1", "note": "(centres undefined)", "Potency": "inconclusive: 100 µM [inhibitor, single point]"}
{"smiles": "CCOC(=O)C1=C(CN2CCCCC2)NC(=O)NC1c1ccc(OC)cc1", "note": "(centres undefined)", "Potency": "active: 44.7 µM"}
{"smiles": "Cc1ccc(-c2cn3c(n2)sc2cc(C(=O)NC4CCCCC4)ccc23)cc1", "Potency": "inconclusive: 141 µM [inhibitor, partial curve, poor fit]"}
{"smiles": "COc1cc(OC)c(NC(=O)Nc2cc(C)on2)cc1Cl", "Potency": "inconclusive: 43.2 µM [inhibitor, single point]"}
{"smiles": "Cc1ccc(C(=O)NC(=S)Nc2cccc(NC(=O)c3ccccc3)c2)cc1[N+](=O)[O-]", "Potency": "active: 25.1 µM"}
{"smiles": "CC(C)Cc1ccc(C(C)C(=O)Nc2ccccc2O)cc1", "note": "(centres undefined)", "Potency": "inconclusive: 39.8 µM [inhibitor, partial curve]"}
{"smiles": "O=C(NCc1ccccc1)c1nc2c(o1)CCN(CC1CCCC1)CC2", "Potency": "inconclusive: 89.1 µM [inhibitor, partial curve, poor fit]"}
{"smiles": "CCC(=O)Nc1sc(C)c(CC)c1C(=O)O", "Potency": "inconclusive: 44.7 µM [inhibitor, partial curve, poor fit]"}
{"smiles": "CC1Cc2cc(/C(O)=C3/C(=O)C(=O)N(CC4CCCO4)C3c3ccco3)ccc2O1", "note": "(centres undefined)", "Potency": "inconclusive: 28.2 µM [inhibitor, single point]"}
{"smiles": "COC(=O)c1sccc1NC(=O)c1ccoc1C", "Potency": "inconclusive: 50.1 µM [inhibitor, partial curve, poor fit]"}
{"smiles": "CC(=O)NS(=O)(=O)c1ccc(NC(=S)NC(=O)C(C)(C)C)cc1", "Potency": "inconclusive: 50.1 µM [inhibitor, partial curve, poor fit]"}
{"smiles": "CCc1nnsc1C(=O)NC(C)c1cnn(-c2ccccc2C)c1C", "note": "(centres undefined)", "Potency": "inconclusive: 3.55 µM [inhibitor, full curve]"}
{"smiles": "COc1cccc(C2CC(c3ccccc3Cl)Nc3ncnn32)c1", "note": "(centres undefined)", "activity change, negative = inhibition": "inactive: 15%"}
{"smiles": "CCCCOCC(O)CCc1n[nH]c(=S)n1-c1ccccc1", "note": "(centres undefined)", "Potency": "inconclusive: 79.4 µM [inhibitor, single point]"}
{"smiles": "O=C(c1ccco1)N1CCN(C(=O)C2CCN(C(=O)c3cccs3)CC2)CC1", "activity change, negative = inhibition": "inactive: -0.63%"}
{"smiles": "CCCCC[C@@H](C)N1C[C@@H](COCc2ccccc2)Oc2cc(N3CC[C@H](N(C)C)C3)ccc2S1(=O)=O", "Potency": "inconclusive: 89.1 µM [inhibitor, partial curve, poor fit]"}
{"smiles": "Cc1noc(C)c1-c1nc(NCc2cccs2)c2ccccc2n1", "Potency": "active: 28.2 µM"}
{"smiles": "CCCCC1C(=O)N(c2ccccc2)N(c2ccc(O)cc2)C1=O", "note": "(centres undefined)", "Potency": "inconclusive: 12.8 µM [inhibitor, single point]"}
{"smiles": "Cc1nc(NC(=O)c2ccco2)sc1-c1csc(Nc2ccc(Cl)cc2)n1", "Potency": "inconclusive: 50.1 µM [inhibitor, partial curve, poor fit]"}
{"smiles": "Cc1cc(-c2ccc(C)c(S(=O)(=O)N(C(C)C)C3CCCCC3)c2)on1", "Potency": "inconclusive: 112 µM [inhibitor, single point]"}
{"smiles": "Cc1cc(F)ccc1NC(=O)C1CCN(c2cnc3ccccc3n2)CC1", "Potency": "inconclusive: 25.1 µM [inhibitor, partial curve, poor fit]"}
{"smiles": "CN1C(=O)NC2(O)C(=O)c3ccccc3C12O", "note": "(centres undefined)", "activity change, negative = inhibition": "inactive: -7.13%"}
{"smiles": "O=C(NC1CCN(Cc2ccccc2)CC1)c1cccc(NS(=O)(=O)c2ccc(Br)cc2)c1", "Potency": "inconclusive: 44.7 µM [inhibitor, partial curve, poor fit]"}
{"smiles": "Cc1ccc(S(=O)(=O)Nc2ccccc2-c2ccccc2)cc1", "activity change, negative = inhibition": "inactive: 2.63%"}
{"smiles": "O=C(CCS(=O)(=O)c1cccc2nsnc12)N1CC(=O)N(CCc2ccccc2)C(=O)C1", "Potency": "inconclusive: 112 µM [inhibitor, single point]"}
{"smiles": "Cc1cc(-c2ccc(NC(=O)CC#N)c(C)c2)ccc1NC(=O)CC#N", "activity change, negative = inhibition": "inactive: 15.8%"}
{"smiles": "CCCCCn1c(=O)[nH]c2cc(C(=O)NCCN3C(C)CCCC3C)ccc2c1=O", "note": "(centres undefined)", "Potency": "inconclusive: 50.1 µM [inhibitor, partial curve, poor fit]"}
{"smiles": "CCc1nnc(NC(=O)C(NS(=O)(=O)c2ccc3c(c2)OCCO3)C(C)C)s1", "note": "(centres undefined)", "Potency": "active: 35.5 µM"}
{"smiles": "O=C(Cc1scnc1-c1cccs1)NCCc1ccccc1", "Potency": "inconclusive: 50.1 µM [inhibitor, single point]"}
{"smiles": "COc1ccc(-n2c(-c3cccc(OC)c3)nc(=S)c3c2CCCC3)cc1", "Potency": "inconclusive: 79.4 µM [inhibitor, partial curve, poor fit]"}
{"smiles": "COCCNC(=S)N/N=C(\\C)c1ccc(-n2ccnc2)cc1", "Potency": "inconclusive: 44.7 µM [inhibitor, partial curve]"}
{"smiles": "O=C(COC(=O)c1ccc2[nH]c3c(c2c1)CCCC3)Nc1ccccc1", "Potency": "inconclusive: 44.7 µM [inhibitor, partial curve, poor fit]"}
{"smiles": "COCc1ccc2c(c1)c(OC(C)(C)C(=O)NC1CCC(O)CC1)nn2Cc1ccccc1", "note": "(centres undefined)", "Potency": "inconclusive: 2.24 µM [inhibitor, full curve, poor fit]"}
{"smiles": "O=C(c1cc2ccccc2o1)N1CCN(CCOc2ccccc2)CC1", "Potency": "inconclusive: 70.8 µM [inhibitor, partial curve, poor fit]"}
{"smiles": "O=C(O)CCSc1nnc(-c2ccc(Cl)cc2Cl)o1", "activity change, negative = inhibition": "inconclusive: -35.9% [inhibitor]"}
{"smiles": "C/C(=C(/NC(=O)c1ccccc1)C(=O)O)c1ccco1", "Potency": "inconclusive: 50.1 µM [inhibitor, partial curve, poor fit]"}
{"smiles": "N#Cc1cccc(NC(=O)NCCNC(=O)Nc2cccc(C#N)c2)c1", "activity change, negative = inhibition": "inactive: -1.17%"}
{"smiles": "CCCOc1cccc(C2/C(=C(/O)c3ccc(F)cc3)C(=O)C(=O)N2CCN(C)C)c1", "note": "(centres undefined)", "Potency": "inconclusive: 39.8 µM [inhibitor, partial curve, poor fit]"}
{"smiles": "Cc1ccccc1/C=C1\\CCc2ccccc2C1=O", "Potency": "inconclusive: 0.0794 µM [inhibitor, full curve, poor fit]"}
{"smiles": "O=[N+]([O-])c1ccc(C=NN2CCCCCC2)cc1", "Potency": "inconclusive: 50.1 µM [inhibitor, partial curve, poor fit]"}
{"smiles": "N#C/C(=N\\Nc1ccc(S(=O)(=O)N2CCc3ccccc32)cc1)C(N)=S", "Potency": "active: 15.8 µM"}
{"smiles": "Cc1ccc(NC(=O)c2ccccc2N(C)S(C)(=O)=O)cc1C", "Potency": "inconclusive: 14.1 µM [inhibitor, partial curve]"}
